# US4277393 (dated 1981)
# *: point of attachment. Boc = CC(C)(C)OC(=O)*; Bn = c1ccc(C*)cc1
# Test: general procedure: solution-phase peptide synthesis; DCC/HOSU, WSC/HOBT, azide method (isoamyl nitrite), ONP active esters
# Settings: coupling step
row,Substance,step yield [%]
1,BOC-Asn-Lys[Cbz(o-Cl)]-Phe-His-OMe,49
2,BOC-Asn-Lys[Cbz(o-Cl)]-Phe-His-Thr(Bzl)-Phe-Pro-OH,90.7
3,Boc-QT(Bn)AIG-OH,48.7
4,BOC-Asn-Lys[Cbz(o-Cl)]-Phe-His-Thr(Bzl)-Phe-Pro-Gln-Thr(Bzl)-Ala-Ile-Gly-Val-Gly-Ala-Pro-NH2,85.3
5,Boc-VGAP-NH2,85.9
6,BOC-Tyr[Bzl(Cl2)]-Thr(Bzl)-Gln-Asp(OBzl)-Phe-OH,86
